From the supplement of paper PMC4683952
The list shows a part of the results. Cut-off read from the data, not from the text of the source: active = 2 or more and inactive = the rest. Most values lie within the scatter of the assay; repeated measurements hardly agree.

These molecules were tested on Lgr5 (MarsCy1-Lgr5-EGFP, U2OS) (assay: cell-surface Lgr5 expression (SCi1 fluorescence, background-subtracted) relative to WT DMSO (fold of DMSO control); higher = more Lgr5 at the plasma membrane). Settings: U2OS MarsCy1-Lgr5-EGFP stable; treatment time: overnight; library: ActiProbe-5K (TimTec); 25 µM.

Structure (SMILES) | cell-surface Lgr5 expression
Oc1ccc(Sc2ccc(O)cc2)cc1 | inactive: 0.848
N#CC1=C(N)SC(N)=C(C#N)C1c1ccncc1 | inactive: 1.24
c1csc(-c2cnc3n2CCC3)c1 | inactive: 0.682
c1ccc(C([C@H]2[C@@H]([C@]([C@H]3(N2C=Cc2c3cccc2))(C#N)C#N)c2ccccc2)=O)cc1 | inactive: 1.23
O=S(=O)(Nc1ccc2c(c1)OCCO2)c1cccs1 | inactive: 1.13
O=[N+]([O-])c1ccc2nc3c(nc2c1)-c1cccc2cccc-3c12 | inactive: 0.715
CS(=O)(=O)N(CCC#N)Cc1ccco1 | inactive: 1.01
c1coc(CSc2ccc(-n3cnnn3)cc2)c1 | inactive: 0.952
Cc1[nH]nc2c1C1(CCN(C(C)C)CC1)C(C#N)=C(N)O2 | inactive: 1.14
Cn1cc(C(N)=O)c(N)n1 | inactive: 1.26
O=c1ccoc2c(Cl)cc(Cl)cc12 | inactive: 1.6
CN1C(=O)/C(=C2\SC(=S)N(CC3CCCO3)C2=O)c2ccccc21 (stereo unspecified) | inactive: 1.47
N#CC1=C2CCCCC2C2(CCCCC2)C(C#N)(C#N)C1=O (stereo unspecified) | inactive: 1.36
COC(=O)C(C(=O)NCC1CCCO1)C1CCCC1 (stereo unspecified) | inactive: 1.21
CC1CCCCC1NC(=O)C(=O)NCC1CCCO1 (stereo unspecified) | inactive: 1.27
Br.Nc1ccc(OCC(O)C[n+]2ccccc2)cc1.[Br-] (stereo unspecified) | inactive: 1.38
Cc1cc2c(cc1C)-c1c(ss/c1=N/c1ccc(S(N)(=O)=O)cc1)C(C)(C)N2 | inactive: 0.813
CC1CCc2onc(C(=O)O)c2C1 (stereo unspecified) | inactive: 1.21
Nc1nonc1-c1noc(CCl)n1 | inactive: 0.865

Part of the list above in order of SMILES length, high to low:
Structure (SMILES) | cell-surface Lgr5 expression
CS(=O)(=O)N(CCC#N)Cc1ccco1 | inactive: 1.01
O=c1ccoc2c(Cl)cc(Cl)cc12 | inactive: 1.6
Cn1cc(C(N)=O)c(N)n1 | inactive: 1.26

Additional results

Structure (SMILES) | cell-surface Lgr5 expression
CCCCCCCCC1CCCC1=O (stereo unspecified) | inactive: 0.976
c1ccc2ncc(-c3ccc4ccccc4n3)cc2c1 | inactive: 1.14
Cc1cc(C)c(CO)c(C)c1/C=N\O | inactive: 1.08
CC(C)COC(=O)C(C)Nc1n[nH]c(=S)[nH]c1=O (stereo unspecified) | inactive: 0.895
CC(=O)c1sc2nc(=O)c(C)nn2c1C | inactive: 1.14
Nc1nonc1C(=O)N1CCOCC1 | inactive: 1.31
Cn1nnnc1SCc1nc(N)nc(N2CCCCC2)n1 | inactive: 1.23
O/N=C\c1cc(Br)c(Sc2ccc(Cl)cc2)o1 | inactive: 1.02
C1(/C(CC(CC1=O)(C)C)=O)=C(\NCCN1CCNCC1)C | inactive: 1.11
CS(=O)(=O)c1nc2ccccc2[nH]1 | inactive: 1.31
CC(C)COC(=O)CCNc1n[nH]c(=O)[nH]c1=O | inactive: 1.22
Cc1cc(Br)c(S(=O)(=O)C(C)(C)C)c(Br)c1 | inactive: 1.1
c1cc2cc(CNC3CC3)ccc2[nH]1 | inactive: 1.41
COc1ccc(/C=N\N=C2N=C(O)/C(=C\c3ccc(OC)cc3)S/2)cc1 | inactive: 1.13
Nc1nc(-c2cccnc2)nc2ccccc12 | inactive: 1.49
Cc1cc(C)nc(Oc2ccc(Br)cc2Br)n1 | inactive: 1.07
Cc1cc(C)nc(S)n1.Cl | inactive: 1.02
SC1=NC2(CCCC2)C2=C(CCC2)N1 | inactive: 1.07
CN(CCOc1ccccc1)S(=O)(=O)c1ccc2oc3ccccc3c2c1 | active: 2.63

Structures above that have a halogen:
Structure (SMILES) | cell-surface Lgr5 expression
O=c1ccoc2c(Cl)cc(Cl)cc12 | inactive: 1.6
Br.Nc1ccc(OCC(O)C[n+]2ccccc2)cc1.[Br-] (stereo unspecified) | inactive: 1.38
Nc1nonc1-c1noc(CCl)n1 | inactive: 0.865
O/N=C\c1cc(Br)c(Sc2ccc(Cl)cc2)o1 | inactive: 1.02
Cc1cc(Br)c(S(=O)(=O)C(C)(C)C)c(Br)c1 | inactive: 1.1
Cc1cc(C)nc(Oc2ccc(Br)cc2Br)n1 | inactive: 1.07
Cc1cc(C)nc(S)n1.Cl | inactive: 1.02

More structures follow:

Structure (SMILES) | cell-surface Lgr5 expression
Nc1nnc(CCC(=O)O)s1 | inactive: 1.24
COC(=O)C(NC(=O)C(F)(F)F)(c1cccn1C)C(F)(F)F (stereo unspecified) | inactive: 1.01
C#CC(C)(C)OC(=O)C1C2C=CC(C2)C1C(=O)OCC(=C)Cl (stereo unspecified) | inactive: 0.943
CS(=O)(=O)Nc1ccc(F)cc1F | inactive: 1.11
O=c1[nH]c(=O)c2nc3ccccc3nc2[nH]1 | inactive: 1.24
COC(=O)Cn1c(=O)n(C)c2c(=O)n(C)c(=O)n(C)c21 | inactive: 1.2
O=Cc1ccc(N2CCCC2)c([N+](=O)[O-])c1 | inactive: 1.05
OCCOc1c(Cl)cc(Cl)c2cccnc12 | inactive: 0.896
Cc1[nH]nc2c1C1(CCC3(CC1)OCCO3)C(C#N)=C(N)O2 | inactive: 1.25
NNc1nnc2c(n1)[nH]c1ccccc12 | inactive: 1.9
O=C1N=C(c2ccccc2)C(c2ccccc2)N1 (stereo unspecified) | inactive: 1.2
Clc1nsnc1N1CCOCC1 | inactive: 1.28
Cn1cnnc1SCCC(=O)O | inactive: 0.999
CCn1ncc(Cl)c1C(=O)NC(Cn1cccn1)C(C)(C)C (stereo unspecified) | inactive: 1.08
CN(C)c1ccc2nc3ccc(=O)cc-3sc2c1 | inactive: 0.998
Nc1ccc2cc3ccc(N)cc3nc2c1 | inactive: 0.628
CCOC(=O)/C(C#N)=C\Nc1cnc(C)o1 | inactive: 1.08
NS(=O)(=O)c1ccc2oc3ccccc3c2c1 | inactive: 1.36
